PMC5384239
Results are given in words; binding and its absence hold for the method and conditions named. Some results given as binding are weak or reduced against the parent protein; the word gives no strength.

By UniProt entry, the sequences of proteins in these tests, tags left out.
UniProt P63104: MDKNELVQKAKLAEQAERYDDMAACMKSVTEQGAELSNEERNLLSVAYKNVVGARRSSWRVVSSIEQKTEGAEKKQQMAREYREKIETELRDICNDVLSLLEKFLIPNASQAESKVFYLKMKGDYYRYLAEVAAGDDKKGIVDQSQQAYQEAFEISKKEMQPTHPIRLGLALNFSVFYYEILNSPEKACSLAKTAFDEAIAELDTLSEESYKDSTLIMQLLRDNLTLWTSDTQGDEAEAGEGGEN
UniProt Q29495: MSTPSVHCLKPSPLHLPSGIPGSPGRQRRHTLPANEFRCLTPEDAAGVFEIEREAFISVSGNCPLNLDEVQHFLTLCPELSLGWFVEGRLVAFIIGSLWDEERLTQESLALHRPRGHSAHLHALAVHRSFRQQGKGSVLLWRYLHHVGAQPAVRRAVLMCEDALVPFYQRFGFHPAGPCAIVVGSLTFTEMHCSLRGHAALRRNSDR

Target: 14-3-3 protein ζ isoform (UniProt P63104)
Assay: stopped-flow polarized fluorescence; kinetics of binding followed by changes in the polarized fluorescence intensity of the AANAT-GFP fusion protein; AANAT phosphorylated at Thr31; 0.1 M Hepes, pH 6.8, 8 °C

aralkylamine N-acetyltransferase (AANAT), wild type, phosphorylated at Thr31, GFP fusion (from UniProt Q29495 1-207) (enzyme)
binding: binds
